Assay results as given in patent US10517965B2, “Bioorthogonal turn-on probes” (The General Hospital Corporation, priority 2013, dated 2019).

Test: Fluorogenic characterization of HELIOS probes on reaction with TCOc
Assay type: physicochemical
Details: unreacted probe in PBS
Description: As described above, the fluorescence purity of all HELIOS compounds was verified by LCMS prior to quantitative activation experiments, for which a fresh aliquot of the fluorophore collected from the analytical HPLC elution was used. Exceptionally pure material is required to obtain the peak measured turn-on ratios, as the presence of trace bright contaminants limits the maximum observable ratio.
Stock solutions of the freshly-purified tetrazine dyes were prepared in MeCN and stored in the dark at 4° C. during experiments. For fluorescence measurements, the probes diluted into 2 mL or 3 mL of phosphate buffered saline (PBS), pH 7.4 (Corning, cellgro) in a standard 10 mm quartz cuvette. […] Fluorescence experiments were conducted at a range of dye concentrations spanning 100 nM-750 nM, with 500 nM being a typical working concentration. […] After addition of TCOc (typically a 20-fold excess, as above), the fluorescence emission intensity was monitored until a plateau was reached. Activation ratios were calculated from the peak emission intensity of the dihydropyridazine product and the corresponding baseline intensity over background. Data were normalized to set the initial background fluorescence of the HELIOS probe to one unit over background, as plotted in FIG. 9 in the main text.

Compound | Fluorescence in native state
Cc1nnc(-c2cccc(-c3c(C)c4cc5c6c(c4oc3=O)CCCN6CCC5)c2)nn1 [HELIOS 400Me] | negligibly fluorescent
Cc1nnc(-c2ccc(-c3c(C)c4cc5c6c(c4oc3=O)CCCN6CCC5)cc2)nn1 [HELIOS 400pMe] | negligibly fluorescent
